Results: paper doi:10.1101/2024.10.12.618001
Results are given in words; binding and its absence hold for the method and conditions named. Some binding calls cover weakened binding; strength is not graded here.

By UniProt entry, the sequences of proteins in these tests, tags left out. Residues count along the entry.
UniProt P25445, residues 26-173: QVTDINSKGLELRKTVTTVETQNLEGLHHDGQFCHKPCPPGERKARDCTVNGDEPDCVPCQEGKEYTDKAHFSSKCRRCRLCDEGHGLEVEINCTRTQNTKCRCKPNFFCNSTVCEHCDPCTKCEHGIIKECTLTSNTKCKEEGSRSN
UniProt P48023, residues 130-281: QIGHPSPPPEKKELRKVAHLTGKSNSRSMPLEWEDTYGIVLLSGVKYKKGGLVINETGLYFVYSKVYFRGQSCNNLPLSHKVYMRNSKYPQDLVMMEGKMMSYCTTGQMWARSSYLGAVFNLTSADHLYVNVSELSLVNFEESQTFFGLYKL

Target: CD95-His receptor protein (Sino Biological) (UniProt P25445)
Test: native gel or EMSA

“CD95-His receptor protein (Sino Biological) (from UniProt P25445 26-173)” was tested, and the binding was “binds”.
With “soluble CD95L (Enzo Life Sciences) (from UniProt P48023 130-281) (ligand)” the binding was “binds”.
